According to paper doi:10.1101/2021.09.16.460653:
Results are given in words; binding and its absence hold for the method and conditions named. Binding seen in cells or lysates may run through a third protein. Some results given as binding are weak or reduced against the parent protein; the word gives no strength. Sequences can lack the tags named with a protein.

Molecular target: T1, CLN6-myc (UniProt Q9NWW5)
T1 sequence: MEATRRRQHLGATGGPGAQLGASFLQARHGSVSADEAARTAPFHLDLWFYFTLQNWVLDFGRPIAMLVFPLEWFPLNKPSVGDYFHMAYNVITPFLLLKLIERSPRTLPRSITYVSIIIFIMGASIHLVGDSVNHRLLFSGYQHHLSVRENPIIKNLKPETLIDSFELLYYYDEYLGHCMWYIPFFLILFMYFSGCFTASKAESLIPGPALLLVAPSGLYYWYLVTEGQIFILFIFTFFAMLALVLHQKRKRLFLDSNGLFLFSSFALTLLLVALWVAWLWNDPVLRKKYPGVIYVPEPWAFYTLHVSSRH
Assay: co-IP

binding: binds
B1: KLC4 in PC12 cells (protein, UniProt Q5PQM2 1-619)
chain: MSGLVLGQRDEPAGHRLSQEEILGSTRLVSQGLESLHSEHQAVLQSLSHTIECLQQGGHEEGLVHEKARQLRRSMENIELGLSEAQVMLALASHLSTVESEKQKLRAQVRRLCQENQWLRDELAGTQQRLQRSEQAVAQLEEEKKHLEFLRQLRQYDEDGHSMEEKEGDASKDSLDDLFPNEEEEDSSNDLSRGQGAAAAQQGGYEIPARLRTLHNLVIQYAAQGRYEVAVPLCKQALEDLERTSGRGHPDVATMLNILALVYRDQNKYKEAAHLLNDALSIRESTLGRDHPAVAATLNNLAVLYGKRGKYKEAEPLCQRALEIREKVLGTDHPDVAKQLNNLALLCQNQGKYEAVERYYQRALAIYERQLGPDNPNVARTKNNLASCYLKQGKYSEAETLYKEILTRAHVQEFGSVDDDHKPIWMHAEEREEMSRSRSRESGTPYAEYGGWYKACRVSSPTVNTTLRNLGALYRRQGKLEAAETLEECALRSRKQGTDPISQTKVAELLGEGDGRKTMQEGPGDSVKFEGGEDASVAVEWSGDGSGTLQRSGSLGKIRDVLRRSSELLVRKLQGTEPRPSSSNMKRAASLNYLNQPNAAPLQTSRGLSASTVDLSSSS
